US9446006B2, “Hydroxytyrosol combinations for enhancing mitochondrial function and energy production” (DSM IP ASSETS B.V., priority 2009, dated 2016)
Entries after “also recorded” stand apart in the source; their conditions may differ. At least one structure is not confirmed: it was looked up by name or label, or the drawing left a doubt.

How the values were obtained:
PGC-1α = PGC-1α protein level in adipocytes (Western blot, densitometry); assay type: cell-based, murine
Protocol: Murine 3T3-L1 pre-adipocytes (American Type Culture Collection) were cultured in Dulbecco's Modified Eagle's Medium (DMEM) supplemented with 10% fetal bovine serum and allowed to reach confluence. Differentiation of pre-adipocytes was initiated with 1 μM insulin, 0.25 μM dexamethasone and 0.5 mM 3-isobutyl-1-methylxanthine in DMEM, supplemented with 10% fetal bovine serum. After 48 h, the culture medium was replaced with DMEM supplemented with 10% fetal bovine serum and 1 μM insulin. The culture medium was changed every other day with DMEM containing 10% fetal bovine serum. […] After treatment, cells were washed twice with ice-cold PBS, lysed in sample buffer (62.5 mM Tris-Cl pH 6.8, 2% SDS, 5 mM DTT) at room temperature and vortexed. Cell lysates were then boiled for 5 minutes and cleared by centrifugation (13,000 rpm, 10 minutes at 4° C.). Protein concentration was determined using the Bio-Rad DC protein assay. The soluble lysates (10 μg per lane) were subjected to 10% SDS-PAGE, proteins were then transferred to nitrocellulose membranes and blocked with 5% non-fat milk/TBST for 1 h at room temperature. […] Western blots were developed using ECL (Roche Manheim, Germany) and quantified by scanning densitometry.

Complex II = test: Mitochondrial complex II protein expression in adipocytes (Western blot); assay type: cell-based, murine; conditions: 3T3-L1 adipocytes; 48 hrs; 0.1, 1.0 and 10.0 μM
Complex III = test: Mitochondrial complex III protein expression in adipocytes (Western blot); assay type: cell-based, murine; conditions: 3T3-L1 adipocytes; 48 hrs; 0.1, 1.0 and 10.0 μM
Complex V = test: Mitochondrial complex V protein expression in adipocytes (Western blot); assay type: cell-based, murine; conditions: 3T3-L1 adipocytes; 48 hrs; 0.1, 1.0 and 10.0 μM
[1] = test system: mitochondrial D-loop (mtDNA); test: Measurement of mitochondrial DNA (quantitative PCR, D-loop:18S rRNA ratio); assay type: cell-based, murine; conditions: 3T3-L1 adipocytes; 48 hrs; 1.0 μM
3T3-L1 adipocytes = test: Oxygen consumption in adipocytes (BD Oxygen Biosensor); assay type: cell-based, murine; conditions: 1.0-10.0 μM
[2] = test system: NADH-CoQ oxidoreductase (Complex I); test: Activity of mitochondrial complex I in treated adipocytes; assay type: cell-based, murine; conditions: 48 hrs, 1.0 μM, relative to control
[3] = test system: succinate-CoQ oxidoreductase (complex II); test: Activity of mitochondrial complex II in treated adipocytes; assay type: cell-based, murine; conditions: 48 hrs, 0.1, 1.0 and 10.0 μM
[4] = test system: CoQ-cytochrome c reductase (complex III); test: Activity of mitochondrial complex III in treated adipocytes; assay type: cell-based, murine; conditions: 48 hrs, 0.1 μM and 10 μM
mitochondrial complex IV = test: Activity of mitochondrial complex IV in treated adipocytes; assay type: cell-based, murine; conditions: 48 hrs, 0.1 μM and 10 μM
mitochondrial complex V = test: Activity of mitochondrial complex V in treated adipocytes; assay type: cell-based, murine; conditions: 48 hrs, 0.1 μM and 10 μM
Cpt1a mRNA = test: Expression of Cpt1a mRNA in adipocytes (RT-PCR); assay type: cell-based, murine; conditions: 3T3-L1 adipocytes, 48 hrs
C2C12 mouse myoblasts = test: Mitochondrial membrane potential by relative JC-1 fluorescence; assay type: cell-based; conditions: C2C12 cells, 24 h, 10 uM
Excerpt: The objective of the experiment was to investigate whether and how mitochondrial energy production in myoblasts is affected by hydroxytyrosol alone or in combination with other compounds. For energy production, the mitochondrial electron transport chain generates a proton gradient across the […], creating a membrane potential that powers the synthesis of ATP by the ATP synthase complex. […] If a critical concentration is reached, JC-1 forms aggregates, which changes its fluorescence properties from green to red fluorescence. […] An increased mitochondrial membrane potential indicates an improved energetic state and increased capability to generate ATP and provide energy for other cellular components. […] After 24 h of treatment, cells were incubated with medium containing JC-1 (2 ug/ml) for 30 min at 37° C., then the staining solution was removed, DMEM without phenol red was added, and green fluorescence (ex 485 nm/em 538 nm) and red fluorescence (ex 544 nm/em 590 nm) was measured using a fluorescence plate reader (SpectraMax M5). The ratio of red to green fluorescence in each well was determined and the average and standard deviation of the quadruplicate treatments were calculated.

For `OCCc1ccc(O)c(O)c1` [Hydroxytyrosol, 3,4-dihydroxyphenylethanol], the PGC1α protein level (PGC-1α; 1.0-10 μM) was “increases PGC1α protein level”, the “Effect on PGC-1α protein level” value (PGC-1α; 3T3-L1 adipocytes, 0.1 to 10.0 μM) was “bell-shape effect on increasing PGC-1α” and the “Complex II protein expression” value (Complex II) was “significantly increased”. For the same molecule, the “Complex III protein expression” value (Complex III) was “significantly increased”, the “Complex V protein expression” value (Complex V) was “significantly increased” and the “Ratio of mt D-loop/18SRNA” value [1] was “significantly increased”. For the same molecule, the “Basal rate of oxygen consumption” value (3T3-L1 adipocytes) was “significantly increased”, the “Activity of mitochondrial complex I” value [2] was “significant increase” and the “Activity of mitochondrial complex II” value [3] was “significantly increased”. For the same molecule, the “Activity of mitochondrial complex III” value [4] was “significant increase”, the “Activity of mitochondrial complex IV” value (mitochondrial complex IV) was “significant increase” and the “Activity of mitochondrial complex V” value (mitochondrial complex V) was “significant increase”. The “Cpt1 mRNA expression” value (Cpt1a mRNA; 1.0 μmol/l) was “significant increase”, the “Cpt1 mRNA expression, dose dependence” value (Cpt1a mRNA; 0.1, 1.0, 10 and 50 μmol/l, listed as HT) was “dose-dependent increase; also recorded: upregulate CPT-1” and the “Effect on mitochondrial membrane potential (red/green JC-1 fluorescence ratio)” value (C2C12 mouse myoblasts) was “increase mitochondrial membrane potential”. For the same molecule, the “Effect on mitochondrial membrane potential (red/green JC-1 fluorescence ratio)” value (C2C12 mouse myoblasts; listed as HT) was “increased mitochondrial potential”.
